Measured values from publication PMC6211622.
Results are given in words; binding and its absence hold for the method and conditions named. Binding seen in cells or lysates may run through a third protein. Some binding calls cover weakened binding; strength is not graded here. Sequences can lack the tags named with a protein. Each block holds one binder with its values, some of them ahead of it.

Columns and labels:
Assay in all cases: co-IP; agarose GFP-traps (Chromotek) on at least 1 mg of pooled soluble nuclear and chromatin-bound fractions of worms; buffer D (20% glycerol, 0.2 mM EDTA pH 8, 150 mM KCl, 20 mM Hepes-KOH pH 7.9, 0.2% Triton X-100), overnight at 4°C; western blot with anti-HA
GFP::SYP-3 (C. elegans) = biological target: T1, GFP::SYP-3 (C. elegans) (UniProt O62238)
T1 sequence: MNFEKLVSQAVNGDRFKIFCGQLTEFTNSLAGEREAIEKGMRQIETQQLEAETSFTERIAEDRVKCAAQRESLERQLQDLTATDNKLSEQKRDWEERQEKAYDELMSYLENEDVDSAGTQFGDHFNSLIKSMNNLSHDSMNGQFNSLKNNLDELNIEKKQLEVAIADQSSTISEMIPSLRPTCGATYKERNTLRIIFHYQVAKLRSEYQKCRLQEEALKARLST

GFP::MSH-5 (C. elegans) = biological target: T2, GFP::MSH-5 (C. elegans) (UniProt Q19272)
T2 sequence: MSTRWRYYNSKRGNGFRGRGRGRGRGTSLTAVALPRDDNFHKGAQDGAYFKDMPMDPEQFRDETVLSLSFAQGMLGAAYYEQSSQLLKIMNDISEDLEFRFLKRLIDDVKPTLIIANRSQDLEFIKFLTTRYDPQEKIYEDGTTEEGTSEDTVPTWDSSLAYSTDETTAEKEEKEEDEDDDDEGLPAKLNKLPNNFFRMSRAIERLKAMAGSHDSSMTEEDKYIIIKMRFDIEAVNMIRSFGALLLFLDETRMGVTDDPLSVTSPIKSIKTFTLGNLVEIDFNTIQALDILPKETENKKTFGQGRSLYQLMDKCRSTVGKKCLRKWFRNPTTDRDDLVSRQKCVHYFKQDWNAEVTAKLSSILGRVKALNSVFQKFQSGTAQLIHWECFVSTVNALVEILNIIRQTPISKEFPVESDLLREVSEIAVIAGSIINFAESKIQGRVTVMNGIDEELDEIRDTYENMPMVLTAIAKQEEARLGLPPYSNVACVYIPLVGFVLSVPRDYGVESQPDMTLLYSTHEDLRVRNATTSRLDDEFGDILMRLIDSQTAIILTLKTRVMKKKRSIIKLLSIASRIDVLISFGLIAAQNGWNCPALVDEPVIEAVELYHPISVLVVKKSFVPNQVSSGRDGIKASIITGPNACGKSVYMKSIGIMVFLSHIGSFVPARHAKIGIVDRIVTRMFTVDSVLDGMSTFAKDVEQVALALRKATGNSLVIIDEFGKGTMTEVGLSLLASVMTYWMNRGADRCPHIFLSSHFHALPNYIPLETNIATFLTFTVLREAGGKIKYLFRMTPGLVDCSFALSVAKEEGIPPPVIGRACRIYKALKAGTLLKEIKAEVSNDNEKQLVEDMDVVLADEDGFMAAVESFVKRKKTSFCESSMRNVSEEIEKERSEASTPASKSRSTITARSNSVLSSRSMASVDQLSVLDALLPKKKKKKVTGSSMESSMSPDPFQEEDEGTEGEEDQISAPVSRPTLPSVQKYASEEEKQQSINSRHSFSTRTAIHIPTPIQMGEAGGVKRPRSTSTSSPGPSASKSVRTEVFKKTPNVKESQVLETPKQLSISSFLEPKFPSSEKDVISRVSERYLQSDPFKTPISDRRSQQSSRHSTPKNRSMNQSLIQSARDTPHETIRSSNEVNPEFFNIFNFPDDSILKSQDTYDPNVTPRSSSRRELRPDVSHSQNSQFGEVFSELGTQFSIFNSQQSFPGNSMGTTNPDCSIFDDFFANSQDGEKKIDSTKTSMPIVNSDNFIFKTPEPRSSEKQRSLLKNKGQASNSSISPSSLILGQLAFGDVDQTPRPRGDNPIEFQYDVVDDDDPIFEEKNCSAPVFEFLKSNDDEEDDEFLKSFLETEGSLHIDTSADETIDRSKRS

GFP::BRC-1 (C. elegans) = biological target: T3, GFP::BRC-1 (C. elegans) (UniProt B6VQ60)
T3 sequence: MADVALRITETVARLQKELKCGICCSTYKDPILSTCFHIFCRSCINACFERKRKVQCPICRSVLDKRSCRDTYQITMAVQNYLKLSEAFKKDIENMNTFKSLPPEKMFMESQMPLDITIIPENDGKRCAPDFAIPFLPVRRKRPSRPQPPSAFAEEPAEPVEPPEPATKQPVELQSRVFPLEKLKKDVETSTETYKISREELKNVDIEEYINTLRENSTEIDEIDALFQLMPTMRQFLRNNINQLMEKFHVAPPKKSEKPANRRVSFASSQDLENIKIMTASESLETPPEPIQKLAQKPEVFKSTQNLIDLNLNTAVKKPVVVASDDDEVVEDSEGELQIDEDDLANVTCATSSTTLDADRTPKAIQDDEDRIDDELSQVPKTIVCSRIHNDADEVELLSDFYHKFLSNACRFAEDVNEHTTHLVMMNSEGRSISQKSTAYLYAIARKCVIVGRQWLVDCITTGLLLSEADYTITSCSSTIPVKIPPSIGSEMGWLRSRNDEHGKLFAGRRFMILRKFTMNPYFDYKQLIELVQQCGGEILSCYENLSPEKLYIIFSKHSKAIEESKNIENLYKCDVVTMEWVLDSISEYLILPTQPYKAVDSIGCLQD

binding (GFP::SYP-3 (C. elegans)): binds
binding (GFP::MSH-5 (C. elegans)): binds
B1: BRD-1::HA (protein, UniProt Q21209 1-702)
chain: MFENTKKALETFRTAIECVKCKKPRGDLQYLGSSCKHAYCWECIATFQQKPSGKRSSVARHMCPSCAFPLDTSKITEAHMLKTCFDTLSELNDLLQKVGTTSLTQAEFACTQNIFNKEKTPADAVEKFLETQAHMPDEMGQLGEEDDDLMCKDENRENSNSPELDIFHDYSKEASPTRNSTKRPSTVSVHERKPKRSSILKTSVKNEPAAPVVDLFASQVPQRTHQNDLLTPFIERRSTAPAATGVATYAQAFGSSSNPVKAEIIEEDIFSKAIPLTKRQASMSASAKKQPKLEPEEPEEVPSTSRSRKNSIKSDKIERRSQSPMSFGEKSMSVKSEQRRSSYGTRRGEAVLVNSIRNNRIPQLRSAVEAGTCVNEKEDGKTPLYVAVENSSLEAVKILVEAGAVINASCGSTLETTLHEAVRRQNTQIVEYLLSKGASIKIRNIAGKTVEEMAKSDPKIRKIIEKFKTEQRVLQPVVAPPKSRLHFVQLIDEKMLTESEKRKLPGKINIVPADMDSPTHVVVTVDLKTRVLNINKEHIGEILKAIIKSGMIVSRDWLRACIIDPSKVDDDRSYMVQKVRWMEGEVFENTIEQWKKTITKMQPKLFAGCKFFIPKPKYNFLDRPALFEIIRSAGGQAAAREPIIDEKDPPPYHNANLKPNFVLYSLTHDIGDKFRDCTKYNLVSEQWLIEAILGCSITTPPH

binding (GFP::BRC-1 (C. elegans)): binds
B2: MSH-5::2xHA (protein, UniProt Q19272 1-1369)
chain: T2 sequence

binding (GFP::SYP-3 (C. elegans)): binds
binding (GFP::MSH-5 (C. elegans)): binds
B3: BRC-1::HA (protein, UniProt B6VQ60 1-609)
chain: T3 sequence
